At least one structure is not confirmed: it was looked up by name or label, or the drawing left a doubt.
Tested on: S. aureus SH1000 biofilm and detached bacteria
Test: Susceptibility of biofilm and detached bacteria to rifampicin killing
Type: cell-based, Staphylococcus aureus
Conditions: cells detached by AIP-I, 100 mg/ml rifampicin, six hours
Protocol: Antibiotic sensitivity. S. aureus biofilms were grown for two days in a flow chamber lined with removable polycarbonate coupons (Flow Cell FC271, Biosurface Technologies, Bozeman Mont.). Biofilm effluents were collected on ice about 24 hours after AIP-I addition. In parallel, coupons with biofilm growth were removed from flow cells not exposed to AIP-I. Both detached bacteria and the biofilms were exposed to the indicated levels of rifampicin for six hours. Subsequently, cells were vortexed, and the coupons were sonicated in a water bath to break up the biofilm or cell clumps. Serial dilutions were plated on TSA to determine surviving CFU's.
Detached S. aureus cells regain antibiotic sensitivity. Biofilm growth of S. aureus increases resistance to antimicrobials when compared to the planktonic growth mode (Fux et al., 2004; Yarwood et al., 2004). This Biofilm-mediated resistance hinders treatment of many chronic S. aureus biofilm related infections, including endocarditis, osteomyelitis, and indwelling medical device infections (Parsek and Singh, 2003; Costerton et al., 2003). Therefore, the inventors asked whether AIP-dispersed bacteria regained sensitivity to a clinically relevant antibiotic, rifampicin. To test this, the inventors collected detached cells from an AIP-treated biofilm effluent and compared resistance to intact biofilms exposed to different levels of rifampicin. […]

## CO[C@H]1/C=C/O[C@@]2(C)Oc3c(C)c(O)c4c(O)c(c(/C=N/N5CCN(C)CC5)c(O)c4c3C2=O)NC(=O)/C(C)=C\C=C\[C@H](C)[C@H](O)[C@@H](C)[C@@H](O)[C@@H](C)[C@H](OC(C)=O)[C@@H]1C [rifampicin]
  killing of detached cells: complete killing
